Assay results taken from patent US7588931B2, “High arachidonic acid producing strains of Yarrowia lipolytica” (E. I. du Pont de Nemours and Company, priority 2004, dated 2009).

System: Yarrowia lipolytica strain Y2031
Test: Lipid composition of strain Y2031 over-expressing M. alpina ELO3
Type: cell-based

B1: ELO3: M. alpina C16/18 fatty acid elongase, SEQ ID NOs:53 and 54 (protein, listed as Mortierella alpina)
chain: MESGPMPAGIPFPEYYDFFMDWKTPLAIAATYTAAVGLFNPKVGKVSRVVAKSANAKPAERTQSGAAMTAFVFVHNLILCVYSGITFYYMFPAMVKNFRTHTLHEAYCDTDQSLWNNALGYWGYLFYLSKFYEVIDTIIIILKGRRSSLLQTYHHAGAMITMWSGINYQATPIWIFVVFNSFIHTIMYCYYAFTSIGFHPPGKKYLTSMQITQFLVGITIAVSYLFVPGCIRTPGAQMAVWINVGYLFPLTYLFVDFAKRTYSKRSAIAAQKKAQ
In the case of B1, the “less C16 fatty acids relative to control strains” value is reported as 31% and the “more C18 fatty acids (18:0, 18:1, 18:2 and GLA) relative to control strains” value is reported as 35%.
